Experimental data taken from publication PMC7083938.
These are yes or no findings as the source states them, for the method shown. Some binding calls cover weakened binding; strength is not graded here. One block for each substance: values may come before it.

Protein sequences, listed by entry. Tags and fused reporters are not part of them. Lines headed by an entry give the natural chain unless they say otherwise; changes in a name come on top. Residues count along the entry.
UniProt Q9Y6N7, residues 26-897: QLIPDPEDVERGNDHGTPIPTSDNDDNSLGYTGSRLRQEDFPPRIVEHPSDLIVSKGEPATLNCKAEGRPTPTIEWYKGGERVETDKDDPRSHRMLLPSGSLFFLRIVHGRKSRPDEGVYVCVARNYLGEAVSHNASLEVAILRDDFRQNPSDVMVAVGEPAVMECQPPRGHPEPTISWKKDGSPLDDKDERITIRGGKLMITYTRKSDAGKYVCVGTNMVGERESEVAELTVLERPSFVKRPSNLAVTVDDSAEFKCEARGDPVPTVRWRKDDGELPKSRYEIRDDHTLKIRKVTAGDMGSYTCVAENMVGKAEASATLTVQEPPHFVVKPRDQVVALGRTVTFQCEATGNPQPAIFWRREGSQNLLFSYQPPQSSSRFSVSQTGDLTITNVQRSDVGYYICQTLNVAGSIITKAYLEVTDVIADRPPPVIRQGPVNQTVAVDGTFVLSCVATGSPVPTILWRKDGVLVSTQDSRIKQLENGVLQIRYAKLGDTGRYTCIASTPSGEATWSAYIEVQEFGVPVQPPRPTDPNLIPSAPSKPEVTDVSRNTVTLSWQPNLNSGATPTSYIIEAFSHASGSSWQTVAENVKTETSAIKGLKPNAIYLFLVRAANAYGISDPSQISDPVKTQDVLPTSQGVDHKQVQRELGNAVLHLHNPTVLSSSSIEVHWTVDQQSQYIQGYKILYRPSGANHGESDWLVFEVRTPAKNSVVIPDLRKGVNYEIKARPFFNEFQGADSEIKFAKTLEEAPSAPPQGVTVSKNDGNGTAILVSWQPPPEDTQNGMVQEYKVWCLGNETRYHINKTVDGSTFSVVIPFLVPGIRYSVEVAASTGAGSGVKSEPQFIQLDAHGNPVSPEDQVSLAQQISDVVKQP
UniProt Q61220, residues 25-819: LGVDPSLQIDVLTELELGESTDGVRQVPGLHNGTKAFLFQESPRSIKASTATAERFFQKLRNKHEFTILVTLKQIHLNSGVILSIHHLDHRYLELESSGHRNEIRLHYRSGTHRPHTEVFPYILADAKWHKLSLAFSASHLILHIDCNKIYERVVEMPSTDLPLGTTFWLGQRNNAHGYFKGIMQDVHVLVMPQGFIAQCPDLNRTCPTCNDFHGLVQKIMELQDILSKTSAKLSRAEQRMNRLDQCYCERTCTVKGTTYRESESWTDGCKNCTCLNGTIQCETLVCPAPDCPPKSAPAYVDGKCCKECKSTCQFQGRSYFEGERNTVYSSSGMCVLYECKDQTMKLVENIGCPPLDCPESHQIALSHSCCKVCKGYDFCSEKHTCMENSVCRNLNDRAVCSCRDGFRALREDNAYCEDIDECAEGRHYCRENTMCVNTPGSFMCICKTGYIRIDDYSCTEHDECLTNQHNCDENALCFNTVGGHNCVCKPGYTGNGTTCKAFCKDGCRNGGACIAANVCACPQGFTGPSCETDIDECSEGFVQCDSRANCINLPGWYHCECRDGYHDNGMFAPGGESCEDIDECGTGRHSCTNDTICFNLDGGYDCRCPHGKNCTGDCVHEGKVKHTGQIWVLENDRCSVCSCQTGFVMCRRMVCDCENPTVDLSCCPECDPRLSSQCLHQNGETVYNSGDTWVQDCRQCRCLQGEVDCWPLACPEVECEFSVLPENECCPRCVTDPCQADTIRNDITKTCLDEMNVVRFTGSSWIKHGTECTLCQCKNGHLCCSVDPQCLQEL
UniProt Q99435: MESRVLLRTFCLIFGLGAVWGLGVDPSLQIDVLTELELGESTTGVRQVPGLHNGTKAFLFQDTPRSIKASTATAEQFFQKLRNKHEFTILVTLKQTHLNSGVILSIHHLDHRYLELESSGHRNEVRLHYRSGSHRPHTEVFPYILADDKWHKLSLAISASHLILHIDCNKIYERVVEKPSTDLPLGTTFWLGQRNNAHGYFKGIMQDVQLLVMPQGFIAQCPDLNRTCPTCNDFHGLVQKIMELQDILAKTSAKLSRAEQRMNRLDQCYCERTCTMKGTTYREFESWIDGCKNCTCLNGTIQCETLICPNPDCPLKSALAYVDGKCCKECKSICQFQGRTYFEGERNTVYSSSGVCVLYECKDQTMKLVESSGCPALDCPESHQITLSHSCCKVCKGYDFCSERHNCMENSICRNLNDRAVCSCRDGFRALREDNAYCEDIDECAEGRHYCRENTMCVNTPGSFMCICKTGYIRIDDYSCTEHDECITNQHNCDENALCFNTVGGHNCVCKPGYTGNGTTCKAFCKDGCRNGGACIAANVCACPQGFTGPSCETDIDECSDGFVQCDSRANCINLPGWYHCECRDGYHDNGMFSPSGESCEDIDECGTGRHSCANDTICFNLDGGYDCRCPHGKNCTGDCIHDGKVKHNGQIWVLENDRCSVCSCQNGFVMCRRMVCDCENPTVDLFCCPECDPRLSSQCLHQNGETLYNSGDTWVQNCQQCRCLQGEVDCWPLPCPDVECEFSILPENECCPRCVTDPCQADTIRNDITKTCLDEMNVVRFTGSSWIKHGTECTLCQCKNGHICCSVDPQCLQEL

Experiments:
[1] = molecular target: T1, mouse Robo3 ectodomain (mouse) (UniProt Q9Z2I4); assay: SPR; mRobo3 ECD (167 RU) and mRobo1^Robo3-FN1 ECD (177 RU) biotinylated with NHS-Biotin and captured on a Biacore Series S SA chip; full-length mNELL2 as analyte; 1:1 Langmuir isotherm with a linear nonspecific-binding term; regeneration with 10 mM EDTA; both purified
T1 sequence (chain, biotin (NHS-Biotin) where captured on the SA chip for SPR): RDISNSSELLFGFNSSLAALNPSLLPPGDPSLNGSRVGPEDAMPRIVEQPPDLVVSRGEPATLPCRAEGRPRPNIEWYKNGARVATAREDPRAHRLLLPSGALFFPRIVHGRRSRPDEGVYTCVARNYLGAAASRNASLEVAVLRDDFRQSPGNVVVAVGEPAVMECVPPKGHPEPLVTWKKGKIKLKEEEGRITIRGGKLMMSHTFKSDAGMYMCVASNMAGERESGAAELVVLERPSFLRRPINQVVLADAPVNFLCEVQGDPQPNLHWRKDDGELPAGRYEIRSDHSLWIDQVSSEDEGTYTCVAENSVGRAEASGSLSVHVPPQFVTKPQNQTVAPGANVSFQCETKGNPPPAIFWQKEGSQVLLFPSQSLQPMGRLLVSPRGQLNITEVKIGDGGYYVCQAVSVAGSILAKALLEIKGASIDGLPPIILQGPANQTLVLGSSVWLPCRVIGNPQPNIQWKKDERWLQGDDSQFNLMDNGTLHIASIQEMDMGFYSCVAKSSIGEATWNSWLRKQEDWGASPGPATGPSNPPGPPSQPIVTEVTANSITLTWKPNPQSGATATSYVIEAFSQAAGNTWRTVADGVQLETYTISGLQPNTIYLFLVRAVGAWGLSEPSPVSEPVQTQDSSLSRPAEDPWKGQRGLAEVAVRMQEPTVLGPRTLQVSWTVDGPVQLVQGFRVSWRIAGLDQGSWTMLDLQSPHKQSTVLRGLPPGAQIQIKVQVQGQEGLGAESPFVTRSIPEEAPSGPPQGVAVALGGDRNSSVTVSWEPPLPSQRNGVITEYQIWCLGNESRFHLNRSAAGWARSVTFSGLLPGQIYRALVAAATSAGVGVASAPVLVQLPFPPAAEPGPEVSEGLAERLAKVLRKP

[2] = molecular target: T2, mouse Robo3.1 on COS-7 cells (mouse) (UniProt Q9Z2I4); assay: AP-fusion protein binding assay on cells; AP-fusion proteins in conditioned medium diluted in AP-binding buffer (HBSS, 20 mM HEPES pH 7.0, 0.2% BSA, 5 mM CaCl2, 1 mM MgCl2, 2 µg/ml heparin), 90 min at 4 °C on receptor-expressing COS-7 cells; AP activity visualised with NBT/BCIP
T2 sequence: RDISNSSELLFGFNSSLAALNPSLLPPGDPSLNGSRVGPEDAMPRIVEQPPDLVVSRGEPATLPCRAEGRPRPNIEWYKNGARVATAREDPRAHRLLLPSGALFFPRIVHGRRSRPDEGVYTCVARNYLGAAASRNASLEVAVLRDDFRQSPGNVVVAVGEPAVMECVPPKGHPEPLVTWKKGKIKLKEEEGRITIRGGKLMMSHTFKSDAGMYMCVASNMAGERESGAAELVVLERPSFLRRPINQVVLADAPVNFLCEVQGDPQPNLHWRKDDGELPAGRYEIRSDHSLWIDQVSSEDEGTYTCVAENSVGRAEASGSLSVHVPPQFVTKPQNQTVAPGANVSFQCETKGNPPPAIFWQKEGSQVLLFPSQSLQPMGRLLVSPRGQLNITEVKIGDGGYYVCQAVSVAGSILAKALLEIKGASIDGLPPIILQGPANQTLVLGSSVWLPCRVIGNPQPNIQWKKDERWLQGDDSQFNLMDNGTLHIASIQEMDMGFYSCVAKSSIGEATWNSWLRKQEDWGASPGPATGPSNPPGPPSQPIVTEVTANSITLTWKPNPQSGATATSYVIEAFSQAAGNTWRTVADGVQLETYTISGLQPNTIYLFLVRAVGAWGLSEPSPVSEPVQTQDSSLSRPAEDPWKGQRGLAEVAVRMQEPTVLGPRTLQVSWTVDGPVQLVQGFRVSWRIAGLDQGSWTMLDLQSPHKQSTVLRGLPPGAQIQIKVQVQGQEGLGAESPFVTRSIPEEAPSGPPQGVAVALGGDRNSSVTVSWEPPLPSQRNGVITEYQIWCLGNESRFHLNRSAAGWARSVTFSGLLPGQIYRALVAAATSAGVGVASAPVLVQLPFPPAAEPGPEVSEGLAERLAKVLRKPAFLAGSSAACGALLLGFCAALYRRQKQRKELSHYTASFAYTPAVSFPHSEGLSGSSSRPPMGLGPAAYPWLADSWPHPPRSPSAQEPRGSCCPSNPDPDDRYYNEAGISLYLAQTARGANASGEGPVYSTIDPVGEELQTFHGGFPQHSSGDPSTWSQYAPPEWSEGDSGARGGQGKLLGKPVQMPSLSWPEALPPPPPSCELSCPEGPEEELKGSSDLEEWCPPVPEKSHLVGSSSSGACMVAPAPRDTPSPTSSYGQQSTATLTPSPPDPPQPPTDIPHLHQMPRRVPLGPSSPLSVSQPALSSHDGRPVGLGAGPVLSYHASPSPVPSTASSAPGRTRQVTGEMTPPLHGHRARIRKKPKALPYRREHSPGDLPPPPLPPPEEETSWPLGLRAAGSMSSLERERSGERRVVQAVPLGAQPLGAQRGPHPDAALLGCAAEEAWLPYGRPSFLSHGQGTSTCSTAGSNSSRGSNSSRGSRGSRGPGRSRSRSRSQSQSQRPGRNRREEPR

[3] = molecular target: human Robo1 ectodomain (ECIA construct) (human) (UniProt Q9Y6N7); assay: extracellular interactome assay (ECIA), ELISA-like; bait and prey constructs (pECIA-bait, pECIA-prey) secreted in conditioned media; levels normalised by western blot for mutants
[4] = molecular target: T3, human Robo3 FN1 left after proteolysis of hRobo3 FN1–3 in crystallization drops (human) (UniProt Q96MS0); assay: crystal structure; sitting-drop vapor diffusion; complexes isolated by SEC, 15 mg/ml in HBS; both purified
T3 sequence: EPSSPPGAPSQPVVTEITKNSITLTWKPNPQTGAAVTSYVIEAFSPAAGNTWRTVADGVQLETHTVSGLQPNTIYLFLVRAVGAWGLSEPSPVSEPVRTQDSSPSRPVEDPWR

binding [1]: binds
Substance: full-length mouse NELL2 (from UniProt Q61220 25-819) (ligand)

binding [2]: binds
Substance: human NELL2-alkaline phosphatase fusion (NELL2-AP) (from UniProt Q99435 22-816) (ligand)

binding [3]: binds weakly
Substance: full-length human NELL2 (ECIA construct) (from UniProt Q99435 22-816) (ligand)

binding [4]: binds
Substance: human NELL2 EGF domains 1-6 (from UniProt Q99435 397-638) (domain or fragment)
